Results published in PubChem BioAssay AID248 (DTP/NCI, 2004).
The list does not hold the whole screen: it gathers some chemical classes. Not every dose and run of a compound is shown. T/C gives the treated animals as a percentage of the vehicle group. For survival time, this PubChem deposit counts one and a half times the control or more as active, and values a quarter to a half above the control carry no call in these data; other NCI protocols may use other cut-offs. Schedules are NCI's codes, read here as Q, the interval in days (D) or hours (H), X, the number of doses. Additions like (4×) stand for listed records that agree. Some doses were run more than once; their values stand side by side, smallest first. Some schedules carry Z or #; the key to these is not given. Some T/C values are followed by the survivors on the day toxicity was checked, most often the fifth; without a count or a note in brackets, all were alive then.

Tested on: L1210 leukemia ip in BDF1 mice, survival T/C
Test: NCI In Vivo Anticancer Drug Screen. Data for tumor model L1210 Leukemia (intraperitoneal) in B6D2F1 (BDF1) mice
Settings: T/C endpoint: mean survival time, higher T/C = longer survival

## OC(CNCCCl)C(O)C(O)C(O)CNCCCl (stereo unspecified)
dose: 0.25 mg/kg/injection, schedule: Q01DX Z (ip), vehicle: saline
  T/C: 104 % of control
dose: 0.3 mg/kg/injection, schedule: Q01DX009 (ip), vehicle: saline
  T/C: 105 % of control
dose: 0.5 mg/kg/injection, schedule: Q01DX Z (ip), vehicle: saline
  T/C: 106 % of control
dose: 0.6 mg/kg/injection, schedule: Q01DX001 (sc), vehicle: saline
  T/C: 105 % of control
dose: 0.6 mg/kg/injection, schedule: Q01DX009 (ip), vehicle: saline
  T/C: 100 % of control
dose: 1.0 mg/kg/injection, schedule: Q01DX Z (ip), vehicle: saline
  T/C: 108 % of control
dose: 1.25 mg/kg/injection, schedule: Q01DX001 (sc), vehicle: saline
  T/C: 101 % of control
dose: 1.25 mg/kg/injection, schedule: Q01DX005 (ip), vehicle: saline
  T/C: 106 % of control
dose: 1.25 mg/kg/injection, schedule: Q01DX009 (ip), vehicle: saline
  T/C: 108 % of control (2×)
dose: 1.25 mg/kg/injection, schedule: Q01DX009 (oral), vehicle: saline
  T/C: 106 % of control
dose: 1.4 mg/kg/injection, schedule: Q01DX006 (iv), vehicle: saline
  T/C: 103 % of control
dose: 1.4 mg/kg/injection, schedule: Q01DX Z (ip), vehicle: saline
  T/C: 123 % of control
dose: 2.0 mg/kg/injection, schedule: Q01DX Z (ip), vehicle: saline
  T/C: 128 and 134 % of control
dose: 2.11 mg/kg/injection, schedule: Q01DX Z (ip), vehicle: carboxymethylcellulose (CMC)
  T/C: 114 % of control
dose: 2.2 mg/kg/injection, schedule: Q01DX006 (iv), vehicle: saline
  T/C: 109 % of control
dose: 2.2 mg/kg/injection, schedule: Q01DX Z (ip), vehicle: saline
  T/C: 129 % of control
dose: 2.5 mg/kg/injection, schedule: Q01DX001 (oral), vehicle: saline
  T/C: 101 % of control
dose: 2.5 mg/kg/injection, schedule: Q01DX001 (sc), vehicle: saline
  T/C: 108 % of control
dose: 2.5 mg/kg/injection, schedule: Q01DX005 (ip), vehicle: saline
  T/C: 120 % of control
dose: 2.5 mg/kg/injection, schedule: Q01DX009 (ip), vehicle: saline
  T/C: 120 and 125 % of control
dose: 2.5 mg/kg/injection, schedule: Q01DX009 (oral), vehicle: saline
  T/C: 102 % of control
dose: 2.5 mg/kg/injection, schedule: Q#A X Z (ip), vehicle: saline
  T/C: 113 % of control
dose: 3.3 mg/kg/injection, schedule: Q01DX006 (iv), vehicle: saline
  T/C: 108 % of control
dose: 3.3 mg/kg/injection, schedule: Q01DX Z (ip), vehicle: saline
  T/C: 137 % of control
dose: 3.75 mg/kg/injection, schedule: Q01DX009 (ip), vehicle: saline
  T/C: 118 % of control
dose: 4.0 mg/kg/injection, schedule: Q01DX Z (ip), vehicle: saline
  T/C: 123 % of control
dose: 4.22 mg/kg/injection, schedule: Q01DX Z (ip), vehicle: carboxymethylcellulose (CMC)
  T/C: 112 % of control
dose: 4.4 mg/kg/injection, schedule: Q03DX Z (ip), vehicle: saline
  T/C: 116 % of control
dose: 4.4 mg/kg/injection, schedule: Q07DX Z (ip), vehicle: saline
  T/C: 114 % of control
dose: 5.0 mg/kg/injection, schedule: Q01DX001 (ip), vehicle: saline
  T/C: 108, 112, 127 % of control
dose: 5.0 mg/kg/injection, schedule: Q01DX001 (oral), vehicle: saline
  T/C: 97 % of control
dose: 5.0 mg/kg/injection, schedule: Q01DX001 (sc), vehicle: saline
  T/C: 117 % of control
dose: 5.0 mg/kg/injection, schedule: Q01DX005 (ip), vehicle: saline
  T/C: 128 % of control
dose: 5.0 mg/kg/injection, schedule: Q01DX006 (iv), vehicle: saline
  T/C: 108 and 125 % of control
dose: 5.0 mg/kg/injection, schedule: Q01DX009 (ip), vehicle: saline
  T/C: 129 and 130 % of control
dose: 5.0 mg/kg/injection, schedule: Q01DX009 (oral), vehicle: saline
  T/C: 102 % of control
dose: 5.0 mg/kg/injection, schedule: Q01DX009 (sc), vehicle: saline
  T/C: 98 % of control
dose: 5.0 mg/kg/injection, schedule: Q01DX Z (im), vehicle: saline
  T/C: 105 % of control
dose: 5.0 mg/kg/injection, schedule: Q01DX Z (ip), vehicle: saline
  T/C: 134 [5 of 6 alive] and 152 % of control
dose: 5.0 mg/kg/injection, schedule: Q01DX Z (oral), vehicle: saline
  T/C: 101 % of control
dose: 5.0 mg/kg/injection, schedule: Q01DX Z (sc), vehicle: saline
  T/C: 102 % of control
dose: 5.0 mg/kg/injection, schedule: Q## X002 (ip), vehicle: saline
  T/C: 117 % of control
dose: 5.0 mg/kg/injection, schedule: Q## X003 (ip), vehicle: saline
  T/C: 113 % of control
dose: 5.0 mg/kg/injection, schedule: Q## X008 (ip), vehicle: saline
  T/C: 109 % of control
dose: 5.0 mg/kg/injection, schedule: Q## X016 (ip), vehicle: saline
  T/C: 103 % of control
dose: 5.0 mg/kg/injection, schedule: Q## X024 (ip), vehicle: saline
  T/C: 111 % of control
dose: 5.0 mg/kg/injection, schedule: Q#A X Z (ip), vehicle: saline
  T/C: 121 % of control
dose: 6.6 mg/kg/injection, schedule: Q03DX Z (ip), vehicle: saline
  T/C: 134 % of control
dose: 6.6 mg/kg/injection, schedule: Q07DX Z (ip), vehicle: saline
  T/C: 112 % of control
dose: 7.5 mg/kg/injection, schedule: Q01DX009 (ip), vehicle: saline
  T/C: 139 % of control
dose: 7.5 mg/kg/injection, schedule: Q01DX015 (ip), vehicle: saline
  T/C: 141 % of control
